Among the data in PMC6290345 are binding values, retold here.

Chains of the proteins cited; added tags and fusions are not shown.
UniProt Q15208: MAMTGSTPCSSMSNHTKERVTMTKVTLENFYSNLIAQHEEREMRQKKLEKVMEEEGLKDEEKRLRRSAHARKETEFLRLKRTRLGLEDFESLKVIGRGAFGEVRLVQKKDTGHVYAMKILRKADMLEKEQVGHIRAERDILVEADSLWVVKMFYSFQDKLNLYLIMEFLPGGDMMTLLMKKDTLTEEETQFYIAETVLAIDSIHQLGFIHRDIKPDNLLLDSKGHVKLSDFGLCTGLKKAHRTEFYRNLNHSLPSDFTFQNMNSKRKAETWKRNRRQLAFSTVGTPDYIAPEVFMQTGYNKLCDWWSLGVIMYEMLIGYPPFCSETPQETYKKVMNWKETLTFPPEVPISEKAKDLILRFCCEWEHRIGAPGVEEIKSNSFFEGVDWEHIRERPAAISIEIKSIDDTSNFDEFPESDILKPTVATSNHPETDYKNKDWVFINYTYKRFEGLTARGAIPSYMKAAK
UniProt Q9Y2H1: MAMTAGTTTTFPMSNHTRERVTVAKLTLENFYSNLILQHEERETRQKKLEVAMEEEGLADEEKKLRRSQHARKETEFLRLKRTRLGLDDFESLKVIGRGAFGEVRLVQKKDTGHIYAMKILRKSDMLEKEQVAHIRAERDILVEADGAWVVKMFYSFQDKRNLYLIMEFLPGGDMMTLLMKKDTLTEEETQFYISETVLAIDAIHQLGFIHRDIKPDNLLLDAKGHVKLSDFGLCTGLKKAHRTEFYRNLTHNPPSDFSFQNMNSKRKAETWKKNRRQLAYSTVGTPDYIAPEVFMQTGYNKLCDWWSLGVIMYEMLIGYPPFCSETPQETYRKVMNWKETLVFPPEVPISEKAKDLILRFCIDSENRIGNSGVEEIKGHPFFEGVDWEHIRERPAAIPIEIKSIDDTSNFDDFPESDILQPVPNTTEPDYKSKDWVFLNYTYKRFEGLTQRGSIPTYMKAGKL

These are yes or no findings as the source states them, for the method shown. Some binding calls cover weakened binding; strength is not graded here. Tags and fused reporters may be left off the sequences shown.

The target in one assay is FLAG-tagged Ndr1 (human) (UniProt Q15208). In words: co-purification of a co-expressed complex; FLAG-tagged Ndr/GFP-Mob2 complexes isolated from HEK 293T cells as in ref. 42 and used soluble for kinase reactions on a peptide library.
The target of assay [1] is FLAG-tagged wild type Ndr2 (human) (UniProt Q9Y2H1). Described as above.

B1: GFP-Mob2 (protein, UniProt Q70IA6 1-237)
chain: MDWLMGKSKAKPNGKKPAAEERKAYLEPEHTKARITDFQFKELVVLPREIDLNEWLASNTTTFFHHINLQYSTISEFCTGETCQTMAVCNTQYYWYDERGKKVKCTAPQYVDFVMSSVQKLVTDEDVFPTKYGREFPSSFESLVRKICRHLFHVLAHIYWAHFKETLALELHGHLNTLYVHFILFAREFNLLDPKETAIMDDLTEVLCSGAGGVHSGGSGDGAGSGGPGAQNHVKER
On to B1, for which the binding result (in the assay with FLAG-tagged Ndr1 (human); in assay [1]) was “binds” each time.
